The source of these data is publication PMC8934873.

The chains behind the UniProt entries cited, without tags or fusion partners.
UniProt Q00341: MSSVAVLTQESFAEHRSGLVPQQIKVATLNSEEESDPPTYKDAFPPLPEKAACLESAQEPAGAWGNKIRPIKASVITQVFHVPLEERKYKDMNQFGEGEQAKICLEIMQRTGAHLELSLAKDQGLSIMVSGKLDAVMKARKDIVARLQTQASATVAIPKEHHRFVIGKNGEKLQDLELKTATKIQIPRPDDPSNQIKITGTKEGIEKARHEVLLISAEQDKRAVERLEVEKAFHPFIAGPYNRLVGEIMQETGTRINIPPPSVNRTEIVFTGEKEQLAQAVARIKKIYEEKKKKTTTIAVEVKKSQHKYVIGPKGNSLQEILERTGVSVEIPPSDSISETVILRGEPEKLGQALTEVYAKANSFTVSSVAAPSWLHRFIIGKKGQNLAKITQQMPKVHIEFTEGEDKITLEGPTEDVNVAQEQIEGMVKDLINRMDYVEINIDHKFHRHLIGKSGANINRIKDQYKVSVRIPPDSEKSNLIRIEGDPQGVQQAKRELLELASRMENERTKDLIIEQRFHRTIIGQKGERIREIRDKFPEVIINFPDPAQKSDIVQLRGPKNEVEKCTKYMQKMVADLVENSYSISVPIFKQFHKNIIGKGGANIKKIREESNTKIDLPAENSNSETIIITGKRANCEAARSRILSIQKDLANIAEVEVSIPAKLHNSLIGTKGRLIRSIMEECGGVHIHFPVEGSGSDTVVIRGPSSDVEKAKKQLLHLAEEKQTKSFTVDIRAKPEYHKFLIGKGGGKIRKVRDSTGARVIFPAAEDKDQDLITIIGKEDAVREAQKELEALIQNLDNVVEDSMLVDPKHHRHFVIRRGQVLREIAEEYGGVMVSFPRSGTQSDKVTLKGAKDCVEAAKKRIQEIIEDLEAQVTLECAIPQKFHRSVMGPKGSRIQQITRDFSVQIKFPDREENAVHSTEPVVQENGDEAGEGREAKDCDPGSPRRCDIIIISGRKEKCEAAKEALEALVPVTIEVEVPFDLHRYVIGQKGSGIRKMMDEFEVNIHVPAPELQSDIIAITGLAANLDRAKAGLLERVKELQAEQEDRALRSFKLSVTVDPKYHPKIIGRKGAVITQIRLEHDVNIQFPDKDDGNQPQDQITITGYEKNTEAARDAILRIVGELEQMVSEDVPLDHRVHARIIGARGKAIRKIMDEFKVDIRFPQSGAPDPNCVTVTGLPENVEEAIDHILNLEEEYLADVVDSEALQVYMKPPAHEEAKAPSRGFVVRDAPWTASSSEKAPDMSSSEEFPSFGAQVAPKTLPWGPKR

The assay concerns the target T1, HA-SUV39H1 (UniProt O43463).
T1 sequence: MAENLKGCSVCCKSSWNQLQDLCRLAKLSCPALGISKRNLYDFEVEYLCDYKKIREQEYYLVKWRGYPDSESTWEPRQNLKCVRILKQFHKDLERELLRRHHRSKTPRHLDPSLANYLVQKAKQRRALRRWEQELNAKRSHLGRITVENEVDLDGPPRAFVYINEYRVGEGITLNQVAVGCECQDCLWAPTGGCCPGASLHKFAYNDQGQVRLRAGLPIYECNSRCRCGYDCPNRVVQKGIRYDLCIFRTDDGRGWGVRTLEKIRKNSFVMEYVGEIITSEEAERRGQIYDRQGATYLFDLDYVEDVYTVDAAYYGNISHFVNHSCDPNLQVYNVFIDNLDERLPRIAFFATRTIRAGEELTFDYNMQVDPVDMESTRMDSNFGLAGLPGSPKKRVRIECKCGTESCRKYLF
In words: co-IP; HA-SUV39H1 and Flag-vigilin co-transfected into HEK293A cells; lysis in 50 mM Tris-HCl, 250 mM NaCl, 5 mM EDTA, 50 mM NaF, 0.1% NP40; anti-HA antibody at 4 °C overnight, protein A/G agarose beads; Western blot.

These are yes or no findings as the source states them, for the method shown. Binding seen in cells or lysates may run through a third protein. Some binding calls cover weakened binding; strength is not graded here. Tags and fused reporters may be left off the sequences shown.

Consider “Flag-vigilin (from UniProt Q00341 1-1268)”, for which the binding entry was “binds”.
